Construct, isoform or probe ends are uncertain for at least one entry. At least one verdict was read from the data and is not stated in words by the source.
System: wild-type core RNA polymerase (WTE) + sigma70
Assay: EMSA
Conditions: no P7, negative control RNAp; Transcription/KMnO4 reactions: 100 nM Esigma70, 20 nM promoter, P7:Esigma70 4:1 pre-incubated; KMnO4 1 mM, 37 C, 30 s; EMSA on 4.5% native PAGE (Fig. 4D at 4 C); recombinant protein; label: 32P in Fig. 4C,D, unlabelled in Fig. 4A,B

Q: Does “GTTAGCTCACTCATTAGGCACCCCAGGCTTTACACTTTATGCTTCCGGCTCGTATAATGTGTGGAATTGTGAGCGGATAACAATTTCACACAGGAAACAG (double strand) [lacUV5 promoter [-64 to +36]]” bind?
A: binds

Source: paper PMC3985653, “A bacteriophage transcription regulator inhibits bacterial transcription initiation by σ-factor displacement”
